Reference: patent publication US6548042B2, “Bis-phosphonate compounds” (priority 2000, dated 2003)
Some entries share one result that the patent states for a list of compounds. For at least one compound, name, drawing or mass did not settle the structure.

Assay: Biodistribution of i.v. administered radioiodinated compounds in balb/c mice;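 note: healthy mice given radioiodinated bisphosphonic acids, with randomly chosen groups of three animals per time point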
Details: 24 h postinjection

With `O=P(O)(O)C(O)(Cc1cccc([131I])c1)P(=O)(O)O` [46a, 1-hydroxy(m-[^131I and ^125I]-iodophenyl)-ethylidene-1,1-bisphosphonic acid] the “Uptake in the thyroid” value was ≤ 0.06±0.04 % of the injected dose.
